Measurements reported in PubChem BioAssay AID1259405 (NCATS, 2018).
Aim: 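Knock-downs that lift recombinant protein yield in hamster ovary cells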 (primary screen). System: Chinese hamster CHO-K1 ovary cells with stable secreted eGFP expression. Reagent: single siRNA against mouse genes, 0.8 pmol siRNA per well (2 µl of 400 nM stock). Timing: 3 days. Read-out: 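Per-well intracellular GFP measured by laser scanning cytometry, plus viability from ATP luminescence, each relative to plate median of non-targeting control wells, in %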. Reading the numbers: GFP, % of control: higher = more GFP per well, higher productivity; viability (ATP), % of control: higher = more viable cells (more ATP). Call rule: 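a knock-down is called active if GFP reaches 120% or more of non-targeting control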.
Here is one part, drawn at random, of about 50,000 reagents tested. In the full data, about 4,000 (8%) got an active call. 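Mouse siRNA library applied to hamster cells; one well for each siRNA.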 Unmarked entries are inactive. Reagents against one gene are numbered here.

| GFP, % of control | viability (ATP), % of control | gene | reagent no. |
| --- | --- | --- | --- |
| 82.9 | 92.7 | Arsb | 1 |
| 74.1 | 87.2 | Arsb | 2 |
| 93.2 | 44.2 | Arsb | 3 |
| 97.3 | 89.9 | Arsb | 4 |
| 60.1 | 60.6 | Arsb | 5 |
| 64.8 | 82.2 | Arsb | 6 |
| 49.5 | 69.5 | Igsf5 | 1 |
| 77.6 | 53.6 | Igsf5 | 2 |
| 80.5 | 52.1 | Igsf5 | 3 |
| 91.4 | 95 | Arf5 | 1 |
| 60.7 | 97.9 | Arf5 | 2 |
| 118 | 102 | Arf5 | 3 |
| 25.6 | 47.3 | 1700123K08Rik | 1 |
| 74 | 80.8 | 1700123K08Rik | 2 |
| 65.7 | 76.5 | 1700123K08Rik | 3 |
| 118 | 86.8 | Iscu | 1 |
| 88.5 | 58.9 | Iscu | 2 |
| 66.6 | 61.9 | Iscu | 3 |
| 80.7 | 75.3 | Dnmt1 | 1 |
| 83.3 | 40.2 | Dnmt1 | 2 |
| 119 | 102 | Dnmt1 | 3 |
| 24.4 | 34.5 | Coro1a | 1 |
| 81.7 | 71.3 | Coro1a | 2 |
| 120 | 94.6 | Abca4 | 1 |
| 42.3 | 52.8 | Abca4 | 2 |
| 162 (active) | 89.3 | Abca4 | 3 |
| 162 (active) | 99.6 | Abca4 | 4 |
| 177 (active) | 102 | Abca4 | 5 |
| 112 | 101 | Abca4 | 6 |
| 207 (active) | 95.9 | Ube2m | 1 |
| 75.7 | 72.1 | Ube2m | 2 |
| 77.9 | 85.2 | Ube2m | 3 |
| 78.1 | 70.3 | Rpl35a | 1 |
| 106 | 65.4 | Rpl35a | 2 |
| 22 | 24.8 | Rpl35a | 3 |
| 143 (active) | 27 | Slx1b | 1 |
| 97.5 | 58.3 | Slx1b | 2 |
| 100 | 69.9 | Slx1b | 3 |
| 70.2 | 62.9 | Abcb8 | 1 |
| 64.8 | 87.2 | Abcb8 | 2 |
| 56.3 | 24.8 | Abcb8 | 3 |
| 107 | 91.4 | Cmtm7 | 1 |
| 87.9 | 78.2 | Cmtm7 | 2 |
| 102 | 96 | Cmtm7 | 3 |
| 197 (active) | 95.5 | Tbx10 | 1 |
| 44.1 | 47 | Tbx10 | 2 |
| 34.7 | 52 | Tbx10 | 3 |
| 69.8 | 88.9 | Fgf4 | 1 |
| 60.6 | 92.7 | Fgf4 | 2 |
| 73 | 48 | Fgf4 | 3 |
| 90.6 | 105 | Lmo2 | 1 |
| 83.4 | 73 | Lmo2 | 2 |
| 69.3 | 79.2 | Lmo2 | 3 |
| 46.9 | 36.7 | Or4d1 | 1 |
| 82.4 | 79.5 | Or4d1 | 2 |
| 81.9 | 98.3 | Or4d1 | 3 |
| 79.2 | 87.8 | Kctd9 | 1 |
| 37.1 | 31.3 | Kctd9 | 2 |
| 45.5 | 54 | Kctd9 | 3 |
| 67.5 | 68.2 | Ssbp1 | 1 |
| 87.3 | 85 | Ssbp1 | 2 |
| 72.4 | 80.8 | Nhlh1 | 1 |
| 104 | 91.7 | Nhlh1 | 2 |
| 81.2 | 100 | Nhlh1 | 3 |
| 92.1 | 98.7 | Tdpoz5 | 1 |
| 164 (active) | 86.8 | Tdpoz5 | 2 |
| 82.9 | 89.7 | Tdpoz5 | 3 |
| 96.7 | 67.7 | Zfp1006 | 1 |
| 53.6 | 68.2 | Zfp1006 | 2 |
| 85.7 | 72.8 | Zfp1006 | 3 |
| 107 | 104 | Sfi1 | 1 |
| 17.3 | 17.7 | Sfi1 | 2 |
| 62.6 | 72.2 | Sfi1 | 3 |
| 61.2 | 77 | Ccn5 | 1 |
| 117 | 92.2 | Ccn5 | 2 |
| 178 (active) | 130 | Ccn5 | 3 |
| 74.6 | 81.8 | Tas2r131 | 1 |
| 92.8 | 55.1 | Tas2r131 | 2 |
| 87.7 | 53.6 | Tas2r131 | 3 |
| 87.8 | 69.3 | Scd1 | 1 |
| 76.1 | 70.6 | Scd1 | 2 |
| 129 (active) | 76 | Scd1 | 3 |
| 115 | 86.3 | Cyria | 1 |
| 69 | 70.9 | Cyria | 2 |
| 129 (active) | 124 | Cyria | 3 |

Ordered by “viability (ATP), % of control” (high to low): some entries from above
| GFP, % of control | viability (ATP), % of control | gene | reagent no. |
| --- | --- | --- | --- |
| 115 | 86.3 | Cyria | 1 |
| 129 (active) | 76 | Scd1 | 3 |
| 76.1 | 70.6 | Scd1 | 2 |
| 87.8 | 69.3 | Scd1 | 1 |
